No constants are given. Whether binding was seen depends on the method and setting. In cells and extracts the contact can be indirect.
Molecular target: EIN2C^479–1294ΔNLS fused to Cerulean (Arabidopsis thaliana) (UniProt Q9S814)
Experiment: FRET or BRET; in planta FLIM-FRET in transiently transformed N. benthamiana epidermal leaf cells; Cerulean fusion as donor, YFP fusions as acceptors; cytosol, ER or nucleus (IMPα5-YFP and IMPα6-YFP: nuclei only)

Sequences of proteins named here, by UniProt entry; tags and fusion partners are left off. A change or cut given only in a name is not applied to a line headed by its entry.
UniProt Q9S814: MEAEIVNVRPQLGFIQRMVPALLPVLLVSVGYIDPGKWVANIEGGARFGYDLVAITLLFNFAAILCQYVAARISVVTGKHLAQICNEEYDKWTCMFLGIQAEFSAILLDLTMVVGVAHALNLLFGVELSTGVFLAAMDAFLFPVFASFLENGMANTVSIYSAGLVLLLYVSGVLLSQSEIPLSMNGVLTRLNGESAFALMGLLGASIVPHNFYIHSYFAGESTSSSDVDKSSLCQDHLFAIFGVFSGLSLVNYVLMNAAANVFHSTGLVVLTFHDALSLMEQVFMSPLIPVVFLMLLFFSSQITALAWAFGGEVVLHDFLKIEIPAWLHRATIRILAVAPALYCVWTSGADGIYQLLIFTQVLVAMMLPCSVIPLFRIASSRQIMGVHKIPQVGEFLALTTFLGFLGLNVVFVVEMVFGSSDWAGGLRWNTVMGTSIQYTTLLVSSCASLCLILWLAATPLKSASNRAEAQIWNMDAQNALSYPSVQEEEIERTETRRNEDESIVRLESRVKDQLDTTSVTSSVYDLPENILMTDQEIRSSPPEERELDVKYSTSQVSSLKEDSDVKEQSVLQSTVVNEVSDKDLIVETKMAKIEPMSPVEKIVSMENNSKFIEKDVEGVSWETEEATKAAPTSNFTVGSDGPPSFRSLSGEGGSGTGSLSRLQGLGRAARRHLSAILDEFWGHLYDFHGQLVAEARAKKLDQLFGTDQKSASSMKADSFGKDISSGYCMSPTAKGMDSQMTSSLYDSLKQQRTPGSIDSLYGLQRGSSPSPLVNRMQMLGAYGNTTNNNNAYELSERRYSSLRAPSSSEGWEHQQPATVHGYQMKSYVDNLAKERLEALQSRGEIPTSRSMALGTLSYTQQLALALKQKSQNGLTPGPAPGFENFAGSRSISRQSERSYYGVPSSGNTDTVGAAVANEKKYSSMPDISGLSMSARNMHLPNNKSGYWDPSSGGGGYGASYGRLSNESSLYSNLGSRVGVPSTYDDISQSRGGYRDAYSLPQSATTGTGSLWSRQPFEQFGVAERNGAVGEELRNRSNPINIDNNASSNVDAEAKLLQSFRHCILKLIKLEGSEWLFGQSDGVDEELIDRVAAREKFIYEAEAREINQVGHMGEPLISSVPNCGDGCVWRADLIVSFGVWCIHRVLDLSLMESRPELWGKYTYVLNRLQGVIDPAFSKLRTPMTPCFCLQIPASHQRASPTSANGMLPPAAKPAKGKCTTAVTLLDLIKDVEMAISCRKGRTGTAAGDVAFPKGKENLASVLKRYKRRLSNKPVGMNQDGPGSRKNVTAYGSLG
UniProt O04294: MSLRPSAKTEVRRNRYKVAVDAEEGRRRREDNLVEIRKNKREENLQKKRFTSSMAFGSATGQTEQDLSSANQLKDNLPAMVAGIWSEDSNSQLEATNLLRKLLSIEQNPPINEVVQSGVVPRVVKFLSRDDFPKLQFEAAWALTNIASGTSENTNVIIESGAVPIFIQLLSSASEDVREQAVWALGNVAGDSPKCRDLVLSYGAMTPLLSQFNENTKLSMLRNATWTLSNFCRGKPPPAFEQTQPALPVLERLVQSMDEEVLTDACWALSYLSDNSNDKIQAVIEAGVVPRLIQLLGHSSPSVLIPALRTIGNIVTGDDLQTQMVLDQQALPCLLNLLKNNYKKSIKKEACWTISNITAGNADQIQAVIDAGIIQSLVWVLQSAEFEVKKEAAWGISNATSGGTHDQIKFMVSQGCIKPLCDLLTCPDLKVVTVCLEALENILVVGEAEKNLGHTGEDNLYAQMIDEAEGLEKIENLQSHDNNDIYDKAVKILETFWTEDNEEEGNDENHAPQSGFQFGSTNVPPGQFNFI

**Q.** With “IMPα3 fused to YFP (from UniProt O04294 1-531)” as the substance, how does the binding read?
**A.** no binding

From publication PMC12871931, “The importin‐alpha superfamily engages in ethylene signaling by shuttling ETHYLENE INSENSITIVE 2 from the endoplasmic reticulum to the nucleus” (The Febs Journal, 2025)
